The data set has as its system Liver microsomes. The experiment in a line: Half life in human liver microsomes. Type of data set: ADME, Microsome. On the technique in general: Liver microsomes are a subcellular fraction often used to study metabolism.

The structures appear in SMILES notation. Only a part of the results on these compounds is given; other tests are left out. Some entries of the source have several records that differ or are many. This is not the full list of results. The source may hold further records. Results that share an entry differ, and nothing given here explains why; some may be repeats, others may stem from another dose, organism or construct than stated. A value given as a limit tells only on which side of the number the result lay.

On to `FC(F)Oc1ccccc1CC(c1ccccc1)N1CCNCC1` (stereo unspecified), for which the t1/2 was > 120 min, 72 min, 44 min.

Values taken from ChEMBL document CHEMBL1155538 (Bioorg Med Chem Lett, 2010).
